Laboratory results published in US20260335446A1, “TETRAZINE-BASED TARGETING AGENTS FOR IN VIVO DELIVERY OF A PAYLOAD” (Tambo, Inc., priority 2023, published 2026).
At least one peptide structure holds a part that was inferred or is arguable (an end, a ring closure or a residue). Numbered stars: 1 amine (or outer) side, 2 acyl side, 3 side chain; on linkers, the order of the positions; unused ones are H or OH. Bridge positions count the residues as written; N and C are the ends. Square brackets hold non-standard residues; d marks the D form. Peptide text beside a SMILES is read from it. * marks the point of attachment. TATA = O=C(CC[*:1])N1CN(C(=O)CC[*:2])CN(C(=O)CC[*:3])C1; 1Nal = N[C@@H](Cc1cccc2ccccc12)C(=O)O; Glutaryl = O=C(CCCC(=O)[*:2])[*:1]; Hyp = O=C(O)[C@@H]1C[C@@H](O)CN1; hArg = N=C(N)NCCCC[C@H](N)C(=O)O; X1 = Cc1nnc(-c2ccc(CN*)cc2)nn1; Sar = CNCC(=O)O

Columns and labels:
[1] = molecular target: T1, human Nectin-4 fusion protein (Homo sapiens, UniProt Q96NY8); experiment: ligand binding assay, human Nectin-4 fusion protein; details: FIG. 1A; Compound 111 at 1.0, 0.5 and 0.1 μg/mL; Compound 111-C at 1.0 and 0.1 μg/mL; detection by TCO-PEG3-biotin/streptavidin-HRP
T1 sequence (Q96NY8 32-510): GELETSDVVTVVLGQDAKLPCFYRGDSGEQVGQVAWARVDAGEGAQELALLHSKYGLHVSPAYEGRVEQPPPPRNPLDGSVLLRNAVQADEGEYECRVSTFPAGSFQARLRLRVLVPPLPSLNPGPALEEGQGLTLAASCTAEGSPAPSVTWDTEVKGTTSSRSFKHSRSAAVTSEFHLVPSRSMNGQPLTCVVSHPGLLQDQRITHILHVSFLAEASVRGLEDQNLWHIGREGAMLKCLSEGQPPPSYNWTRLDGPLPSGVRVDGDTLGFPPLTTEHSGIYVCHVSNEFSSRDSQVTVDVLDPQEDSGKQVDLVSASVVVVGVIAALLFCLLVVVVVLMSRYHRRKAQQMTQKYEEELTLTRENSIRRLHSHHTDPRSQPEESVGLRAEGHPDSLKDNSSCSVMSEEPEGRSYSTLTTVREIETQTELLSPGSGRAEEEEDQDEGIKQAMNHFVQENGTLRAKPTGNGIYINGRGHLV

[2] = molecular target: T2, mouse Nectin-4 fusion protein (Mus musculus, UniProt Q8R007); experiment: ligand binding assay, mouse Nectin-4 fusion protein; details: FIG. 1B; Compound 111 at 1.0, 0.5 and 0.1 μg/mL; Compound 111-C at 1.0 and 0.1 μg/mL; detection by TCO-PEG3-biotin/streptavidin-HRP
T2 sequence (Q8R007 31-508): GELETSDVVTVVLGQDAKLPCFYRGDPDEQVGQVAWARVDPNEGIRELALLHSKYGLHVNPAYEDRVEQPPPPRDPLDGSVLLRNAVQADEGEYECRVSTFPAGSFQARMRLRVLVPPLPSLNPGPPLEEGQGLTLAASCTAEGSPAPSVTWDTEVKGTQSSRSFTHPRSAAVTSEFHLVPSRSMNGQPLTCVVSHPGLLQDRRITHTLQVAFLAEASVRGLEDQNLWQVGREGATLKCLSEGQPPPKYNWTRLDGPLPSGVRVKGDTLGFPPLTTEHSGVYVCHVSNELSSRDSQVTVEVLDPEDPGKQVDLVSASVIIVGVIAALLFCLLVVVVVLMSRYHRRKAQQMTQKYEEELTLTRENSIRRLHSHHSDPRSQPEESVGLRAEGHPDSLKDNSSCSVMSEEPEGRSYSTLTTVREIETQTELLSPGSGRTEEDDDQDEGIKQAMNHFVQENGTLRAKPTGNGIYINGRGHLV

## CSCC[C@@H]1NC(=O)[C@@H]2CSCCC(=O)N3CN(CN(C3)C(=O)CCSC[C@H](NC(=O)CN(C)C(=O)CN(C)C(=O)CN(C)C(=O)CN(C)C(=O)CN(C)C(=O)CN(C)C(=O)CN(C)C(=O)CN(C)C(=O)CN(C)C(=O)CN(C)C(=O)CCCC(=O)NCc3ccc(-c4nnc(C)nn4)cc3)C(=O)N3CCC[C@H]3C(=O)N[C@@H](Cc3cccc4ccccc34)C(=O)N[C@H](CC(=O)O)C(=O)N2)C(=O)CCSC[C@@H](C(N)=O)NC(=O)[C@@H](Cc2c[nH]c3ccccc23)NC(=O)[C@@H]2C[C@@H](O)CN2C(=O)[C@@H]2CCCN2C(=O)[C@H]([C@@H](C)O)NC(=O)[C@H](CO)NC(=O)[C@@H](Cc2c[nH]c3ccccc23)NC(=O)[C@H](CC(=O)O)NC(=O)[C@H](CCCCNC(=N)N)NC1=O [Compound 111-C, reference compound] ({X1-Glutaryl}-[Sar][Sar][Sar][Sar][Sar][Sar][Sar][Sar][Sar][Sar]CP[1Nal][dD]CM[hArg]D[dW]STP[Hyp][dW]C-NH2; linker 11-15-25 via TATA)
[1]
  binding to human isoform of recombinant Nectin-4: does not bind
[2]
  binding to mouse isoform of recombinant Nectin-4: does not bind

## CSCC[C@@H]1NC(=O)[C@@H]2CSCCC(=O)N3CN(CN(C3)C(=O)CCSC[C@H](NC(=O)CN(C)C(=O)CN(C)C(=O)CN(C)C(=O)CN(C)C(=O)CN(C)C(=O)CN(C)C(=O)CN(C)C(=O)CN(C)C(=O)CN(C)C(=O)CN(C)C(=O)CCCC(=O)NCc3ccc(-c4nnc(C)nn4)cc3)C(=O)N3CCC[C@H]3C(=O)N[C@@H](Cc3cccc4ccccc34)C(=O)N[C@H](CC(=O)O)C(=O)N2)C(=O)CCSC[C@@H](C(N)=O)NC(=O)[C@H](Cc2c[nH]c3ccccc23)NC(=O)[C@@H]2C[C@@H](O)CN2C(=O)[C@@H]2CCCN2C(=O)[C@H]([C@@H](C)O)NC(=O)[C@H](CO)NC(=O)[C@H](Cc2c[nH]c3ccccc23)NC(=O)[C@H](CC(=O)O)NC(=O)[C@H](CCCCNC(=N)N)NC1=O [Compound 111] ({X1-Glutaryl}-[Sar][Sar][Sar][Sar][Sar][Sar][Sar][Sar][Sar][Sar]CP[1Nal][dD]CM[hArg]DWSTP[Hyp]WC-NH2; linker 11-15-25 via TATA)
[1]
  binding to human isoform of recombinant Nectin-4: binds
[2]
  binding to mouse isoform of recombinant Nectin-4: binds
